Laboratory results: PubChem BioAssay AID1259254 (NCATS, 2017)
Screen: 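Genome-wide screen for genes that prevent DNA re-replication in cancer cells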 (primary screen). Cells: human HCT116 colorectal cancer cells. Reagents: single siRNA against human genes. Timing: 3 days. Read-out: 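Imaged Hoechst DNA stain sorts each cell into a cycle phase by DNA amount; per plate, G2 fraction set to 0% for non-targeting and 100% for GMNN siRNA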. Scale: G2 robust z-score and G2 cells, % of GMNN control: higher = more G2 cells, more excess DNA replication; raw share of cells in G2: higher = larger share of cells with G2 DNA content. Active means: 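An siRNA counts as active if its G2 robust z-score lies at least 5 MADs above the screen median; here such calls match roughly 38% of GMNN control or more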.
Here is one part, drawn at random, of about 59,000 reagents tested. About 1,550 of them (2.6%) were called active. 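G2 share is only a proxy for re-replication; each gene was hit by three separate siRNAs, and active genes were retested.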 Raw values vary from plate to plate and are shown uncorrected. Reagents against one gene are numbered here. Not given: the amount of reagent.

target | reagent | G2 robust z-score | G2 cells, % of GMNN control | raw share of cells in G2 (%) | activity call
COPS7A (COP9 signalosome subunit 7A) | 1 | -0.0545 | 2.58 | 4.84 | inactive
COPS7A (COP9 signalosome subunit 7A) | 2 | 7.14 | 53.2 | 24.7 | active
COPS7A (COP9 signalosome subunit 7A) | 3 | -0.717 | -2.07 | 2.6 | inactive
SOWAHA (sosondowah ankyrin repeat domain family member A) | 1 | -0.791 | -2.6 | 3.2 | inactive
SOWAHA (sosondowah ankyrin repeat domain family member A) | 2 | -0.577 | -1.09 | 2.76 | inactive
SOWAHA (sosondowah ankyrin repeat domain family member A) | 3 | -0.0372 | 2.71 | 3.56 | inactive
DEFB113 (defensin beta 113) | 1 | 0.315 | 5.19 | 5.46 | inactive
DEFB113 (defensin beta 113) | 2 | -0.331 | 0.638 | 3.35 | inactive
DEFB113 (defensin beta 113) | 3 | -0.188 | 1.64 | 3.72 | inactive
MTDH (metadherin) | 1 | -0.401 | 0.147 | 4.15 | inactive
MTDH (metadherin) | 2 | -0.095 | 2.3 | 3.72 | inactive
MTDH (metadherin) | 3 | 2.78 | 22.6 | 10.1 | inactive
TANGO2 (transport and golgi organization 2 homolog) | 1 | -0.125 | 2.09 | 4.96 | inactive
TANGO2 (transport and golgi organization 2 homolog) | 2 | 0.3 | 5.08 | 4.71 | inactive
TANGO2 (transport and golgi organization 2 homolog) | 3 | 0.151 | 4.03 | 4.04 | inactive
ORC6 (origin recognition complex subunit 6) | 1 | -0.187 | 1.65 | 7.03 | inactive
ORC6 (origin recognition complex subunit 6) | 2 | -0.0229 | 2.81 | 5.09 | inactive
ORC6 (origin recognition complex subunit 6) | 3 | -0.11 | 2.2 | 4.62 | inactive
MIR1-1HG (MIR1-1 host gene) | 1 | -0.288 | 0.944 | 3.4 | inactive
MIR1-1HG (MIR1-1 host gene) | 2 | -0.698 | -1.94 | 1.88 | inactive
MIR1-1HG (MIR1-1 host gene) | 3 | -1.18 | -5.36 | 2.15 | inactive
NUDC (nuclear distribution C, dynein complex regulator) | 1 | 0.8 | 8.6 | 6.62 | inactive
NUDC (nuclear distribution C, dynein complex regulator) | 2 | 3.12 | 24.9 | 16.5 | inactive
NUDC (nuclear distribution C, dynein complex regulator) | 3 | 1.38 | 12.6 | 11.5 | inactive
APOBEC3G (apolipoprotein B mRNA editing enzyme catalytic subunit 3G) | 1 | 0.316 | 5.19 | 6.11 | inactive
APOBEC3G (apolipoprotein B mRNA editing enzyme catalytic subunit 3G) | 2 | 0.088 | 3.59 | 5.62 | inactive
APOBEC3G (apolipoprotein B mRNA editing enzyme catalytic subunit 3G) | 3 | 3.45 | 27.2 | 16.9 | inactive
BRMS1L (BRMS1 like transcriptional repressor) | 1 | -0.293 | 0.908 | 4.41 | inactive
BRMS1L (BRMS1 like transcriptional repressor) | 2 | 0.161 | 4.1 | 4.67 | inactive
BRMS1L (BRMS1 like transcriptional repressor) | 3 | -0.577 | -1.09 | 2.07 | inactive
SLC4A2 | 1 | 2.31 | 19.2 | 11.1 | inactive
SLC4A2 | 2 | 4.93 | 37.7 | 16.4 | inactive
SLC4A2 | 3 | 0.812 | 8.68 | 8.6 | inactive
ZNF8 (zinc finger protein 8) | 1 | -1.43 | -7.12 | 1.16 | inactive
ZNF8 (zinc finger protein 8) | 2 | -1.15 | -5.14 | 3.7 | inactive
ZNF8 (zinc finger protein 8) | 3 | -0.375 | 0.332 | 3.48 | inactive
SMU1 (SMU1 DNA replication regulator and spliceosomal factor) | 1 | 0.451 | 6.14 | 6.88 | inactive
SMU1 (SMU1 DNA replication regulator and spliceosomal factor) | 2 | 0.868 | 9.07 | 7.9 | inactive
SMU1 (SMU1 DNA replication regulator and spliceosomal factor) | 3 | 0.613 | 7.28 | 5.46 | inactive
LOC339902 (hCG1813818) | 1 | -0.889 | -3.29 | 2.86 | inactive
LOC339902 (hCG1813818) | 2 | -0.853 | -3.03 | 1.93 | inactive
LOC339902 (hCG1813818) | 3 | -0.764 | -2.41 | 3.22 | inactive
ETNPPL (ethanolamine-phosphate phospho-lyase) | 1 | 0.252 | 4.74 | 5.95 | inactive
ETNPPL (ethanolamine-phosphate phospho-lyase) | 2 | 2.99 | 24 | 12.8 | inactive
ETNPPL (ethanolamine-phosphate phospho-lyase) | 3 | -1.03 | -4.3 | 3.87 | inactive
EPN1 (epsin 1) | 1 | 1.29 | 12 | 7.04 | inactive
EPN1 (epsin 1) | 2 | -0.439 | -0.123 | 5.85 | inactive
EPN1 (epsin 1) | 3 | 1.86 | 16.1 | 8.68 | inactive
ABL1 (ABL proto-oncogene 1, non-receptor tyrosine kinase) | 1 | -0.559 | -0.967 | 5.29 | inactive
ABL1 (ABL proto-oncogene 1, non-receptor tyrosine kinase) | 2 | 0.154 | 4.05 | 6.77 | inactive
ABL1 (ABL proto-oncogene 1, non-receptor tyrosine kinase) | 3 | -0.44 | -0.128 | 3.98 | inactive
C5 (complement C5) | 1 | 0.4 | 5.78 | 5.76 | inactive
C5 (complement C5) | 2 | -0.509 | -0.613 | 4.56 | inactive
C5 (complement C5) | 3 | 7.53 | 56 | 23.4 | active
UBE2J1 (ubiquitin conjugating enzyme E2 J1) | 1 | -0.118 | 2.14 | 5.03 | inactive
UBE2J1 (ubiquitin conjugating enzyme E2 J1) | 2 | 2.27 | 18.9 | 11.1 | inactive
UBE2J1 (ubiquitin conjugating enzyme E2 J1) | 3 | 3.41 | 27 | 18.2 | inactive
SYAP1 (synapse associated protein 1) | 1 | 0.197 | 4.36 | 5.84 | inactive
SYAP1 (synapse associated protein 1) | 2 | 2.53 | 20.8 | 9.53 | inactive
SYAP1 (synapse associated protein 1) | 3 | -0.544 | -0.859 | 1.57 | inactive
OR5K4 (olfactory receptor family 5 subfamily K member 4) | 1 | 0.64 | 7.47 | 6.53 | inactive
OR5K4 (olfactory receptor family 5 subfamily K member 4) | 2 | 0.614 | 7.28 | 6.41 | inactive
OR5K4 (olfactory receptor family 5 subfamily K member 4) | 3 | -1.09 | -4.67 | 2.85 | inactive
GPR52 (G protein-coupled receptor 52) | 1 | 1.49 | 13.5 | 10.7 | inactive
GPR52 (G protein-coupled receptor 52) | 2 | -0.429 | -0.0494 | 4.5 | inactive
GPR52 (G protein-coupled receptor 52) | 3 | 1.06 | 10.4 | 6.46 | inactive
UNC5B-AS1 (UNC5B antisense RNA 1) | 1 | 0.266 | 4.84 | 4.88 | inactive
UNC5B-AS1 (UNC5B antisense RNA 1) | 2 | 1.25 | 11.7 | 7.67 | inactive
UNC5B-AS1 (UNC5B antisense RNA 1) | 3 | -0.516 | -0.662 | 3.67 | inactive
ARHGEF37 (Rho guanine nucleotide exchange factor 37) | 1 | 0.174 | 4.19 | 6.43 | inactive
ARHGEF37 (Rho guanine nucleotide exchange factor 37) | 2 | -0.307 | 0.806 | 4.05 | inactive
ARHGEF37 (Rho guanine nucleotide exchange factor 37) | 3 | -0.862 | -3.1 | 2.06 | inactive
LOC729047 (retired record) | 1 | -0.199 | 1.56 | 4.53 | inactive
LOC729047 (retired record) | 2 | -0.604 | -1.28 | 2.9 | inactive
LOC729047 (retired record) | 3 | -0.321 | 0.706 | 3.38 | inactive
CDC27P5 (cell division cycle 27 pseudogene 5) | 1 | 1 | 10 | 7.55 | inactive
CDC27P5 (cell division cycle 27 pseudogene 5) | 2 | -1.4 | -6.88 | 0.671 | inactive
CDC27P5 (cell division cycle 27 pseudogene 5) | 3 | 1.93 | 16.5 | 8.29 | inactive
ZNF518B (zinc finger protein 518B) | 1 | -0.321 | 0.706 | 4.38 | inactive
ZNF518B (zinc finger protein 518B) | 2 | -0.164 | 1.81 | 3.57 | inactive
ZNF518B (zinc finger protein 518B) | 3 | 0.107 | 3.72 | 4.1 | inactive
MSS51 (MSS51 mitochondrial translational activator) | 1 | -0.59 | -1.18 | 2.76 | inactive
MSS51 (MSS51 mitochondrial translational activator) | 2 | 1.26 | 11.8 | 7.16 | inactive
MSS51 (MSS51 mitochondrial translational activator) | 3 | -0.345 | 0.542 | 3.72 | inactive
YIF1B | 1 | 0.582 | 7.06 | 7.08 | inactive
YIF1B | 2 | 0.424 | 5.95 | 4.87 | inactive
YIF1B | 3 | 0.492 | 6.43 | 4.96 | inactive
YIF1B | 4 | -0.877 | -3.21 | 2.38 | inactive
YIF1B | 5 | -0.529 | -0.752 | 3.13 | inactive
YIF1B | 6 | -0.18 | 1.7 | 3.7 | inactive

Reagents listed above with an active call (2):
target | reagent | G2 robust z-score | G2 cells, % of GMNN control | raw share of cells in G2 (%) | activity call
COPS7A (COP9 signalosome subunit 7A) | 2 | 7.14 | 53.2 | 24.7 | active
C5 (complement C5) | 3 | 7.53 | 56 | 23.4 | active
